Source: paper PMC6892922
Results are given in words; binding and its absence hold for the method and conditions named. Some results given as binding are weak or reduced against the parent protein; the word gives no strength.

T1: Ehg1-Cub-LV P17A-P20A (S. cerevisiae) (UniProt Q06537)
T1 sequence: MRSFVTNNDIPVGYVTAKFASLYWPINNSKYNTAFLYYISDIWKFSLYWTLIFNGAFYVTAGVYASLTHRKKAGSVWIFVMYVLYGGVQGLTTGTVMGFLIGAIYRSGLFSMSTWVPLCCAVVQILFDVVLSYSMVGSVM

T2: Ehg1-Cub-LV F19A (S. cerevisiae) (UniProt Q06537)
T2 sequence: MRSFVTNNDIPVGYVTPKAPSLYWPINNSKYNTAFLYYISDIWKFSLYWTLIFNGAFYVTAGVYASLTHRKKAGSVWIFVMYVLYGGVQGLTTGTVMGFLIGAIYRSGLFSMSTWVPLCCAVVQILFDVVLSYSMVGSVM


What was measured:
[1] = molecular target: T1, Ehg1-Cub-LV P17A-P20A (S. cerevisiae); assay: two-hybrid; split-ubiquitin membrane yeast two-hybrid in strain NMY51; Ehg1 fused to Cub-LexA-VP16 as bait, permease fused to NubG (I3G) as prey; growth for 24 h in SC medium lacking adenine and histidine (ADE2 and HIS3 reporters)
[2] = molecular target: T2, Ehg1-Cub-LV F19A (S. cerevisiae); assay: as above

| Binder | binding [1] | binding [2] |
| --- | --- | --- |
| NubG-Hip1 (protein, UniProt P06775 1-603) MPRNPLKKEYWADVVDGFKPATSPAFENEKESTTFVTELTSKTDSAFPLSSKDSPGINQTTNDITSSDRFRRNEDTEQEDINNTNLSKDLSVRHLLTLAVGGAIGTGLYVNTGAALSTGGPASLVIDWVIISTCLFTVINSLGELSAAFPVVGGFNVYSMRFIEPSFAFAVNLNYLAQWLVLLPLELVAASITIKYWNDKINSDAWVAIFYATIALANMLDVKSFGETEFVLSMIKILSIIGFTILGIVLSCGGGPHGGYIGGKYWHDPGAFVGHSSGTQFKGLCSVFVTAAFSYSGIEMTAVSAAESKNPRETIPKAAKRTFWLITASYVTILTLIGCLVPSNDPRLLNGSSSVDAASSPLVIAIENGGIKGLPSLMNAIILIAVVSVANSAVYACSRCMVAMAHIGNLPKFLNRVDKRGRPMNAILLTLFFGLLSFVAASDKQAEVFTWLSALSGLSTIFCWMAINLSHIRFRQAMKVQERSLDELPFISQTGVKGSWYGFIVLFLVLIASFWTSLFPLGGSGASAESFFEGYLSFPILIVCYVGHKLYTRNWTLMVKLEDMDLDTGRKQVDLTLRREEMRIERETLAKRSFVTRFLHFWC | binds | binds |
| NubG-Bap2 (protein, UniProt P38084 1-609) MLSSEDFGSSGKKETSPDSISIRSFSAGNNFQSSSSEKTYSKQKSGSDKLIHRFADSFKRAEGSTTRTKQINENTSDLEDGVESITSDSKLKKSMKSRHVVMMSLGTGIGTGLLVANAKGLHYGGPAALIIGYILVSFVTYFMIQAAGEMAVTYPTLPANFNAYSSIFISKSFGFATVWLYCFQWLTVLPLELITASMTIQFWNDKINPDIYILIFYVFLVFIHFFGVKAYGETEFIFNCCKILMIAGFIILSIVINCGGAGNDGYIGATYWHNPGAFAGDTSIGRFKNVCYILVTAYFSFGGMELFALSVQEQSNPRKSTPVAAKRSIYRIVVIYLLTMILIGFNVPYNDDQLMGAGGSATHASPYVLAASIHGVKIVPHIINAVILISVVSVANSSLYAGPRLICSLAQQGYAPKFLDYVDREGRPLRALIVCCVFGVIAFVAASSKEEIVFTWLAAIAGLSELFTWTSIMLSHLRFRQAMKVQGRSLDELGYKATTGIWGSIYGVFFNILVFVAQFWVALAPLGNGGKCDAESFFQNYLAFPIWLAFYFGYMVYNRDFTLLNPLDKIDLDFHRRIYDPELMRQEDEENKEKLRNMSLMRKAYHFWC | no binding | binds |
